# Assay results as given in the supplement of paper PMC12067093, “Discovery and optimisation of a covalent ligand for TRIM25 and its application to targeted protein ubiquitination” (Chemical Science, 2025).
# Sequences of proteins named here, by UniProt entry; tags and fusion partners are left off. A change or cut given only in a name is not applied to a line headed by its entry.
# UniProt Q14683: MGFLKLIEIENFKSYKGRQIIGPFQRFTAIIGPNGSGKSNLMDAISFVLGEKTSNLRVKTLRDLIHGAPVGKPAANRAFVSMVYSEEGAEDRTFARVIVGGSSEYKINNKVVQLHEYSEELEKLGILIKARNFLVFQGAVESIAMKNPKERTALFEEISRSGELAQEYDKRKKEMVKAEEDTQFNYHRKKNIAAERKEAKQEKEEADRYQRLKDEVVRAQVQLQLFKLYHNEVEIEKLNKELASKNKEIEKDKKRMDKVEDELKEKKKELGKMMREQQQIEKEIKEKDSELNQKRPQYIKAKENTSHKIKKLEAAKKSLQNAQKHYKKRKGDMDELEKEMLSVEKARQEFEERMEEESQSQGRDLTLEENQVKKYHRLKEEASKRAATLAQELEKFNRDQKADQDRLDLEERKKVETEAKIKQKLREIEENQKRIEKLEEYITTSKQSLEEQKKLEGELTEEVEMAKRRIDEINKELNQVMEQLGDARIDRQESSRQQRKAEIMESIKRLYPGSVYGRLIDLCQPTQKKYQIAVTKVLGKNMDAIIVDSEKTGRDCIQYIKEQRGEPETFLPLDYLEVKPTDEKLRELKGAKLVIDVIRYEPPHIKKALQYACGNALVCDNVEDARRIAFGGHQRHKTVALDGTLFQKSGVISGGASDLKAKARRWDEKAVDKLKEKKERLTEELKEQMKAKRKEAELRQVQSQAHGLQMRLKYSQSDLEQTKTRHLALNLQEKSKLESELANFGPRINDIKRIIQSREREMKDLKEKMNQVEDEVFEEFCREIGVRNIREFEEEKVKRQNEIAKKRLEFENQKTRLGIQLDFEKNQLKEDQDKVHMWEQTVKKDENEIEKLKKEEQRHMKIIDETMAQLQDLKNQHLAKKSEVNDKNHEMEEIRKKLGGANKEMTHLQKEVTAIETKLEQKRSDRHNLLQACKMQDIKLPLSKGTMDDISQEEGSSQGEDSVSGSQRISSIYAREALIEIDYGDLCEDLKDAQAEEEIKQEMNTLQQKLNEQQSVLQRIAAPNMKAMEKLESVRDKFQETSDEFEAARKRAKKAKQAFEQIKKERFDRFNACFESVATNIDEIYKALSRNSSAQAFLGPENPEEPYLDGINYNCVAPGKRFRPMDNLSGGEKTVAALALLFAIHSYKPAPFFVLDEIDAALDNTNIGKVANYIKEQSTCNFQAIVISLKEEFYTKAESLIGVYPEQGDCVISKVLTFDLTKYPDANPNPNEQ
# UniProt O95347, whole entry, looked up: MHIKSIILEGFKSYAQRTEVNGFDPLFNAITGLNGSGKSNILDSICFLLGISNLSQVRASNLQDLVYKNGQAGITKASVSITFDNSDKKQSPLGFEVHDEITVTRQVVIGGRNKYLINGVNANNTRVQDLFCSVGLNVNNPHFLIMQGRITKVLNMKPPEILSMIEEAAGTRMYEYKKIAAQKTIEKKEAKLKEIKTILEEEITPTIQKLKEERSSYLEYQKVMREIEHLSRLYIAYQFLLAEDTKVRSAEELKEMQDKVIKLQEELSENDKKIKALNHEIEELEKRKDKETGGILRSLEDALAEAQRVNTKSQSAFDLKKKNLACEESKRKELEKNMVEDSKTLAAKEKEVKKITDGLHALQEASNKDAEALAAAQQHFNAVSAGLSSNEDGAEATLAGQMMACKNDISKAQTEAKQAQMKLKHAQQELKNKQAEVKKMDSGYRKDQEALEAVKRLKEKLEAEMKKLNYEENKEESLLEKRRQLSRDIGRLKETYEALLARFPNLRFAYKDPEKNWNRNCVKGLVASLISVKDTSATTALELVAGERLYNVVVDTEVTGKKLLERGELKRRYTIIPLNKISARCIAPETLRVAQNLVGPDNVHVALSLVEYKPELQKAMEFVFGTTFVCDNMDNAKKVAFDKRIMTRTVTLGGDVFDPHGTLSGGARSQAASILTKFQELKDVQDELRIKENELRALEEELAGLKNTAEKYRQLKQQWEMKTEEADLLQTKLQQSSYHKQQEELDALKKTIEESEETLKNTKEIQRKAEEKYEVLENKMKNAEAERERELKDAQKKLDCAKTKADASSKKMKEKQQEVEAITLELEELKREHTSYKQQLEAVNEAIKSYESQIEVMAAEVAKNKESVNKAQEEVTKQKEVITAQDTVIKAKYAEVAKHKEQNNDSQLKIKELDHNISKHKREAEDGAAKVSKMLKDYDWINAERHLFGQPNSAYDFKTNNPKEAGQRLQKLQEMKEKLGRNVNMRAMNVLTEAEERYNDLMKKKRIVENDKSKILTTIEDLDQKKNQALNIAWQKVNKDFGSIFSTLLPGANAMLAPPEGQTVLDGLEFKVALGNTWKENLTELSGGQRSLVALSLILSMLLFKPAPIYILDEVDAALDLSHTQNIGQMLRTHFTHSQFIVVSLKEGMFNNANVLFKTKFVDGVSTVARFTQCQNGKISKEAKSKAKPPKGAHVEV
# UniProt O75643, whole entry, looked up: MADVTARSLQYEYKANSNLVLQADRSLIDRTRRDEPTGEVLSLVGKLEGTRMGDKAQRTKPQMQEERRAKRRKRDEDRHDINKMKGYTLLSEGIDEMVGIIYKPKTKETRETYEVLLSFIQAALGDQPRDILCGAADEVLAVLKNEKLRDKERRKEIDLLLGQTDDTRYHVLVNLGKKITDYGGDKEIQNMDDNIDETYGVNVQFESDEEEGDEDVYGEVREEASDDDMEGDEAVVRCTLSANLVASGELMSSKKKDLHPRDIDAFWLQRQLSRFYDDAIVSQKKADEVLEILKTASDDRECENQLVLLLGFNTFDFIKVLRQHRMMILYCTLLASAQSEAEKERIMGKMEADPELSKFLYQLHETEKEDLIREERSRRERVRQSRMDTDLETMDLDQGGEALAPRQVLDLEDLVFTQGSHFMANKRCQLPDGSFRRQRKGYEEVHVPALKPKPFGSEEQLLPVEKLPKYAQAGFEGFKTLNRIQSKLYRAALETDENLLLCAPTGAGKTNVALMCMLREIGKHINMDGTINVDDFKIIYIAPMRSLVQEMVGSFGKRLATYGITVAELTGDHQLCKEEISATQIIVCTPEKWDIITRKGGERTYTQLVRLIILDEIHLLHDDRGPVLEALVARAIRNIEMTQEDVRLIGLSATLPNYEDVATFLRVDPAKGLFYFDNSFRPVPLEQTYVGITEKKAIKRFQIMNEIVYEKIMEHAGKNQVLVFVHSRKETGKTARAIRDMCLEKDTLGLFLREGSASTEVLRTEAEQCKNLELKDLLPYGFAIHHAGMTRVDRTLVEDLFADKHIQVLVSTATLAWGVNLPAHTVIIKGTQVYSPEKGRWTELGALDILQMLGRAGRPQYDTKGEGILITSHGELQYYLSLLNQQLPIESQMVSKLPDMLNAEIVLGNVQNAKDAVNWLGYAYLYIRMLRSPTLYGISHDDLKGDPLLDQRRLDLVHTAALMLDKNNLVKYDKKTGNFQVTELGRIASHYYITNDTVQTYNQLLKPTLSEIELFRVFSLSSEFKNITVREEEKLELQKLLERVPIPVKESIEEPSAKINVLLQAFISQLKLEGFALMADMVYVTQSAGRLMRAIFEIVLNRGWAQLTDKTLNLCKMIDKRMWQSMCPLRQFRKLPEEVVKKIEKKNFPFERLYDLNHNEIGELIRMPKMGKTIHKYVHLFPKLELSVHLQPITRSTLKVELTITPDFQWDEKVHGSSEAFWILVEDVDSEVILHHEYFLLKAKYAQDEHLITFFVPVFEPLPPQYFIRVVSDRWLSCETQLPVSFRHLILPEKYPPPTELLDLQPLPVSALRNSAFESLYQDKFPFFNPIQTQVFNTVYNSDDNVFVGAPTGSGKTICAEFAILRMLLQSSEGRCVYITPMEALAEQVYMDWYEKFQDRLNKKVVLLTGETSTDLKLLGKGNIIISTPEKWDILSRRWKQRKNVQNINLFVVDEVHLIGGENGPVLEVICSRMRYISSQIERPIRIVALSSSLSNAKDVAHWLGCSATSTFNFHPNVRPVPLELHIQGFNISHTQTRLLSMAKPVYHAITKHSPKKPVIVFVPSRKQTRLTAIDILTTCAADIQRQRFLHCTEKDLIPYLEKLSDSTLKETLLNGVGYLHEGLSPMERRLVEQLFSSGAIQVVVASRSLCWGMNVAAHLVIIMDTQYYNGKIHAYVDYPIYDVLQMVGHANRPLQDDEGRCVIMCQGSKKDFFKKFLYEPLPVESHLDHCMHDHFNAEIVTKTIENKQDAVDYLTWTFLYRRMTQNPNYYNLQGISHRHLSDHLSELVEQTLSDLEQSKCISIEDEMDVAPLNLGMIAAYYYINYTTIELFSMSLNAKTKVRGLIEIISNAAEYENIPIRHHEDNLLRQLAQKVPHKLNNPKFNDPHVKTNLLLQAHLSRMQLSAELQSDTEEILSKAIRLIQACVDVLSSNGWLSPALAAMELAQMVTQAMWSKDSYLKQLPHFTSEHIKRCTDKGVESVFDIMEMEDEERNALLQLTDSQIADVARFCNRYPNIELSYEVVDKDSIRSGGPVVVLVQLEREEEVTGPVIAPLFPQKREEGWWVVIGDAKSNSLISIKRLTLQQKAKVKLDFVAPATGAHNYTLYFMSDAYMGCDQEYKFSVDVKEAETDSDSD
# UniProt Q9HAU4, whole entry, looked up: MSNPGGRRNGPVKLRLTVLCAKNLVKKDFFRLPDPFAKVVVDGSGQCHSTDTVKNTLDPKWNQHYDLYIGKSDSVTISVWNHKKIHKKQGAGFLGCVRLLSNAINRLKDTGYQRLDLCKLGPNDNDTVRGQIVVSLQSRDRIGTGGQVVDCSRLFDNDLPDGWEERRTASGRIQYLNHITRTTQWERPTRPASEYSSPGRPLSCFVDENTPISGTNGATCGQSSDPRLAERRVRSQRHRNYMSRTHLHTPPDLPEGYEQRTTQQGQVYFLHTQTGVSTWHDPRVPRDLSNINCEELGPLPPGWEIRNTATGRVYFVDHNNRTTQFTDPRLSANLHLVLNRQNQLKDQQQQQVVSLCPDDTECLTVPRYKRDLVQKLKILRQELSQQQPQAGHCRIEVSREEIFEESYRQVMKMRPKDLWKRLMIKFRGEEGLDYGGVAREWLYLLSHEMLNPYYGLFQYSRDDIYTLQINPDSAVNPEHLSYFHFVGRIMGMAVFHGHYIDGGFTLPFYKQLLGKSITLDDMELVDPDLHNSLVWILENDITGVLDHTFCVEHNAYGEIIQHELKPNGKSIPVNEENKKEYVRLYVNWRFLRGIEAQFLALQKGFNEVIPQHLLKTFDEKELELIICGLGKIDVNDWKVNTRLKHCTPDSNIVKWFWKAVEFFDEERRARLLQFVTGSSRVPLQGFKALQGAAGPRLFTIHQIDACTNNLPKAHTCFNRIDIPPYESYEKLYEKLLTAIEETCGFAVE
# UniProt O60264, whole entry, looked up: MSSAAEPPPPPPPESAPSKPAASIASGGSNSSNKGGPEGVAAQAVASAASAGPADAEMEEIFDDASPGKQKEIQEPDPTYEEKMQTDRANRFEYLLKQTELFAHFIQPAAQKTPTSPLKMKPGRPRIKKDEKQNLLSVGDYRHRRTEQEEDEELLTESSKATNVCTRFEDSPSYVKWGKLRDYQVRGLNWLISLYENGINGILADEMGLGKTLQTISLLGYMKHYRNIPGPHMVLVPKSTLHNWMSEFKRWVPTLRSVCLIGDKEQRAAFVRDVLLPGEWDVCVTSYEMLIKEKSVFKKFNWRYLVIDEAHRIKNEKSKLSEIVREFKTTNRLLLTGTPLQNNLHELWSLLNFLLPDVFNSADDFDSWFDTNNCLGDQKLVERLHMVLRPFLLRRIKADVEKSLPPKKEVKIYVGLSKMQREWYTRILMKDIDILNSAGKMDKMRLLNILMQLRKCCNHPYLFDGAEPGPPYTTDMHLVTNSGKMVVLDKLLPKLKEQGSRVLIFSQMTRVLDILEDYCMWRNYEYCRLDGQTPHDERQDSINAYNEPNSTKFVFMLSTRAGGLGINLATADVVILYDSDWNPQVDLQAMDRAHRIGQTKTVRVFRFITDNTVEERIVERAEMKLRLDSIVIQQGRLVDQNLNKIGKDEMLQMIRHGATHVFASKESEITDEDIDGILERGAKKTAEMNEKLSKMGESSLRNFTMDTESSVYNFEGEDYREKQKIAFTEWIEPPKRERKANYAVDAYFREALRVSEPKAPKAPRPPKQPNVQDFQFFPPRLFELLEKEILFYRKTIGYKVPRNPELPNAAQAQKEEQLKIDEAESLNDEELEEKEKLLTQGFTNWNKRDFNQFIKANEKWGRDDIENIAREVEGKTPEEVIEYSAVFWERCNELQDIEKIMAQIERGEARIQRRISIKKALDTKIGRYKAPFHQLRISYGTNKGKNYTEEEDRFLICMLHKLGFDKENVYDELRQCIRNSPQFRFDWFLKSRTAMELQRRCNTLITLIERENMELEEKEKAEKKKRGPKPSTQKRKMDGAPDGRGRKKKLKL
# This is one part of the list.
# Compound: Cc1cc(ccc1-c1ccccc1)C(=O)N1CCCN(CC1)C(=O)CCl [compound 10]
# Test: probe-labelled cysteine peptide fold change vs DMSO (competition) (log2 fold change); higher = less target engagement (more negative = stronger competition)
# Conditions: THP-1, incubation time: 4 h
# 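Further: competitive profiling in live THP-1 cells: cysteine peptides tagged with an iodoacetamide desthiobiotin (IA-DTB) probe, intensity after compound treatment relative to DMSO-treated cells.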
Target,probe-labelled cysteine peptide fold change (10 µM),probe-labelled cysteine peptide fold change (50 µM)
SMC1A_Q14683_523_LIDLCQPTQK (UniProt Q14683),0.0226,0.15
SNRNP40_Q96DI7_99_LILLWNVYGDCDNYATLK (UniProt Q96DI7),0.0915,0.303
SMC1A_Q14683_619_ALQYACGNALVCDNVEDARR (UniProt Q14683),-0.0448,0.0252
SMC2_O95347_326_NLACEESK (UniProt O95347),-0.0606,-0.489
SNRNP200_O75643_331_MMILYCTLLASAQSEAEK (UniProt O75643),-0.0246,0.526
SMS_P52788_229_MVTMVEIDQMVIDGCKK (UniProt P52788),-0.0388,-0.348
SMC2_O95347_630_AMEFVFGTTFVCDNMDNAK (UniProt O95347),-0.169,-0.0333
SMAD4_Q13485_401_CLSDHAVFVQSYYLDR (UniProt Q13485),0.224,0.0111
SMG1_Q96Q15_3587_SVACSPK (UniProt Q96Q15),-0.222,-0.23
SMURF2_Q9HAU4_393_QELSQQQPQAGHCR (UniProt Q9HAU4),-0.000784,0.38
SLFN13_Q68D06_487_EQDAEGQDYCTR (UniProt Q68D06),0.0321,-0.0182
SMARCC1_Q92922_761_VDPTYGLESSCIAGTGPDEPEKLEGAEEEK (UniProt Q92922),-0.444,-0.14
SLC39A14_Q15043_290_LQNGDLDHMIPQHCSSELDGK (UniProt Q15043),-0.206,-0.37
SNRNP200_O75643_133_DILCGAADEVLAVLK (UniProt O75643),0.0456,-0.0684
SLC9A3R1_O14745_206_IVEVNGVCMEGK (UniProt O14745),0.165,-0.0744
SMARCAD1_Q9H4L7_861_VLGCILSELK (UniProt Q9H4L7),0.0115,0.278
SMCR8_Q8TEV9_644_DNSCEGFPAYELDPSHLLASR (UniProt Q8TEV9),0.0826,0.501
SMAP2_Q8WU79_80_SVNLDQWTQEQIQCMQEMGNGK (UniProt Q8WU79),-0.0858,-0.00988
SMARCA5_O60264_283_DVLLPGEWDVCVTSYEMLIK (UniProt O60264),-0.039,0.0736

# Pulled one by one from the list above (2):
Target,probe-labelled cysteine peptide fold change (10 µM),probe-labelled cysteine peptide fold change (50 µM)
SNRNP200_O75643_133_DILCGAADEVLAVLK (UniProt O75643),0.0456,-0.0684
SMARCA5_O60264_283_DVLLPGEWDVCVTSYEMLIK (UniProt O60264),-0.039,0.0736

# Going on with the list:

Target,probe-labelled cysteine peptide fold change (10 µM),probe-labelled cysteine peptide fold change (50 µM)
SMPD1_P17405_590_GHPPSEPCGTPCR (UniProt P17405),-0.138,0.195
SMU1_Q2TAY7_312_GVTCLSFSK (UniProt Q2TAY7),0.0977,0.00392
SMARCC1_Q92922_845_ELTDTCK (UniProt Q92922),-0.0883,-0.168
SMG6_Q86US8_182_VEEEEVLNQVEQLRVEEDECR (UniProt Q86US8),-0.314,0.143
SMARCA2_P51531_399_QEVVACMR (UniProt P51531),0.0865,0.109
SMARCD2_Q92925_405_TACYDIDVEVDDPLK (UniProt Q92925),-0.0837,0.244
SMG8_Q8ND04_72_FSLVNTVCDR (UniProt Q8ND04),-0.0267,-0.165
SLU7_O95391_469_EIVNSEECIINEITGEESVK (UniProt O95391),-0.103,0.205
SMYD3_Q9H7B4_261+263_DQYCFECDCFR (UniProt Q9H7B4),-0.0235,-0.599
SND1_Q7KZF4_152_LSECEEQAK (UniProt Q7KZF4),-0.318,-0.0168
SND1_Q7KZF4_837_DIQNTQCLLNVEHLSAGCPHVTLQFADSKGDVGLGLVK (UniProt Q7KZF4),0.0091,-0.728
SNRNP48_Q6IEG0_26_LQEELNEFVESGCR (UniProt Q6IEG0),-0.308,0.17
SMARCA2_P51531_1175_LCTVNSVEEK (UniProt P51531),0.113,0.118
SMAD3_P84022_121_DEVCVNPYHYQR (UniProt P84022),-0.00681,-0.0626
SMCHD1_A6NHR9_474_RPIFECFWNGR (UniProt A6NHR9),-0.0556,0.352
SMURF2_Q9HAU4_706_LFTIHQIDACTNNLPK (UniProt Q9HAU4),-0.159,-0.59
SMAD5_Q99717_110_WPDLQSHHELKPLDICEFPFGSK (UniProt Q99717),-0.00397,-0.103
SMC6_Q96SB8_58_NFMCHSMLGPFK (UniProt Q96SB8),-0.0959,0.109
SMYD5_Q6GMV2_378_ENYLFVCSCPK (UniProt Q6GMV2),-0.0959,-0.244
